In the supplement of paper PMC8256030 one finds percent effect data, which are given here for 40 molecules.

Several values for one entry are separate records, joined by “and”; a condition that tells them apart may be missing. Identical values can stand only once. The list shows a part of the results. Repeats in this data set agree poorly, so a single value says little.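 HEK293T cells were given each compound shortly before transfection with a reporter in which red mCherry is followed by the SARS-CoV-2 frameshift element and then GFP in the −1 frame, so GFP appears only after frameshifting.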

The subject of this assay is SARS-CoV-2 -1 PRF reporter mCherry-FSE-GFP(-1). As to the kind of experiment: percent effect, decrease of GFP/mCherry ratio (-1 PRF reporter) relative to controls; higher = stronger frameshift inhibition. The following applies: 10 µM; 24 h; HEK293T.
`CC(C)c1nc(CN(C)C(=O)N[C@H](C(=O)N[C@@H](Cc2ccccc2)C[C@H](O)[C@H](Cc2ccccc2)NC(=O)OCc2cncs2)C(C)C)cs1` [ritonavir]: the percent effect is -3.42%.

On to `O=C1C(=O)c2ccccc2C(O)=C1C1CCC(c2ccc(Cl)cc2)CC1` (stereo not given), for which the percent effect is -8.69%. `CC1(C)OC(=O)NC1=O` [dimethadione]: the percent effect was -8.31%. On to `CC[N+]([O-])(CC)CCOc1ccc(/C(=C(/Cl)c2ccccc2)c2ccccc2)cc1` [clomifenoxide], for which the percent effect is -2.89%. With `COCCCC/C(=N\OCCN)c1ccc(C(F)(F)F)cc1`, the percent effect is -1.11%. To `O=C(NCC1CCCO1)c1cc(Br)cc(Br)c1O` (stereo not given) [fursalan] belongs -7.5%; to `Cc1ccc2nc(C)c(CCN3CCC(C(=O)c4ccc(F)cc4)CC3)c(=O)n2c1` [metrenperone], -7.06%. To `O=C(O)c1ccccc1OP(=O)(O)O` [fosfosal] belongs 0.83%. Take `CCCCCCCCCCCCCCCCCCOP(=O)([O-])OC1CC[N+](C)(C)CC1`: the percent effect is -0.204%. To `CNCC[C@H](Oc1cccc2ccccc12)c1cccs1` belongs 2.74%. With `Cc1cc(=O)n(-c2ccccc2)n1C` [Phenazone], the percent effect was 0.048%. To `CC(C)c1[nH]c2ccccc2c1C(=O)c1cccnc1` [nictindole] belongs -1.99%; to `CC(N)C12CC3CC(CC(C3)C1)C2` (stereo not given) [Rimantadine], -7.37%; to `C=C[C@]1(C)C[C@@H](OC(=O)CSCCN(CC)CC)[C@]2(C)[C@H](C)CC[C@]3(CCC(=O)[C@H]32)[C@@H](C)[C@@H]1O` [tiamulin], -3.97%.

For `CC(=O)Oc1cccc2c1C(=O)c1c(OC(C)=O)cc(C(=O)O)cc1C2=O` [diacerein], the percent effect was 1%. As to `C[C@H](Cc1cc2c(c(C(N)=O)c1)N(CCCO)CC2)NCCOc1ccccc1OCC(F)(F)F` [silodosin], the percent effect is -0.336%. To `COC(=O)Nc1nc2cc(C(=O)c3ccc(F)cc3)ccc2[nH]1` [Flubendazole] belongs -7.27% and -11.8%; to `CO[C@H]1C[C@H](O[C@H]2[C@H](C)O[C@@H](O[C@@H]3/C(C)=C/C[C@@H]4C[C@@H](C[C@]5(C=C[C@H](C)[C@@H](C6CCCCC6)O5)O4)OC(=O)[C@@H]4C=C(C)[C@@H](O)[C@H]5OC/C(=C\C=C\[C@@H]3C)[C@]54O)C[C@@H]2OC)O[C@@H](C)[C@@H]1O`, -1.54%. To `CCCCC[C@H](O)CC[C@@H]1[C@H]2Cc3cccc(OCC(=O)O)c3C[C@H]2C[C@H]1O` [treprostinil] belongs -2.14%.

Consider `COc1cc(N)c(Cl)cc1C(=O)N1CCN(Cc2ccc3c(c2)OCO3)CC1` [peralopride], for which the percent effect was -0.985%.

For the molecule `C[C@H]1O[C@@H](O[C@H]2[C@@H](O)C[C@H](O[C@H]3[C@@H](O)C[C@H](O[C@H]4CC[C@@]5(C)[C@H](CC[C@@H]6[C@@H]5CC[C@]5(C)[C@@H](C7=CC(=O)OC7)CC[C@]65O)C4)O[C@@H]3C)O[C@@H]2C)C[C@H](O)[C@@H]1O` [Digitoxin], the percent effect is -10.7%. In the case of `CO[C@H](C(=O)[C@@H](O)[C@@H](C)O)[C@@H]1Cc2cc3cc(O[C@H]4C[C@@H](O[C@H]5C[C@@H](O)[C@H](O)[C@@H](C)O5)[C@H](O)[C@@H](C)O4)c(C)c(O)c3c(O)c2C(=O)[C@H]1O[C@H]1C[C@@H](O[C@H]2C[C@@H](O[C@H]3C[C@](C)(O)[C@H](O)[C@@H](C)O3)[C@@H](O)[C@@H](C)O2)[C@H](O)[C@@H](C)O1` [plicamycin], the percent effect came to 1.27%. To `CSc1ccc(C(=O)c2[nH]c(=O)[nH]c2C)cc1` [enoximone] belongs -0.466%. On to `CCC(NC(C)C)C(O)c1ccc(O)c(O)c1` (stereo not given), for which the percent effect came to 2.67%.

`CC(C)(O/N=C(\C(=O)N[C@@H]1C(=O)N2C(C(=O)[O-])=C(C[n+]3ccccc3)CS[C@H]12)c1csc(N)n1)C(=O)O` [Fortaz]: the percent effect is -3.15%. To `CC[N+](C)(C)Cc1ccccc1Br` [bretylium tosilate] belongs -1.82%; to `CC(N)(Cc1ccc(O)cc1)C(=O)O` (stereo not drawn) [racemetirosine], -3.83%; to `CNC1COc2ccccc2C(O)C1` (stereo not given) [exepanol], -6.02%. With `O=C1NC(=O)C(C(=O)Nc2ccc(Cl)cc2)c2ccccc21` (stereo not given) [tesicam], the percent effect is -6.08%. To `CN1C(CSCC(F)(F)F)Nc2cc(Cl)c(S(N)(=O)=O)cc2S1(=O)=O` (stereo not given) [polythiazide] belongs -1.64%; to `CCc1nnc(NS(=O)(=O)c2ccc(N)cc2)s1` [sulfaethidole], -6.49%.

Consider `C[C@H]1[C@H](OC(=O)CCC(=O)O)O[C@@H]2O[C@@]3(C)CC[C@H]4[C@H](C)CC[C@@H]1[C@@]24OO3` [Artesunate], for which the percent effect is -24.5%.

Take `O=C(O)[C@H](CCc1ccccc1)N[C@H]1CCCN2CCC[C@@H](C(=O)O)N2C1=O` [cilazaprilat]: the percent effect is -5.34%.

For `CCCc1c2oc(C(=O)O)cc(=O)c2cc2c(=O)cc(C(=O)O)n(CC)c12` [nedocromil], the percent effect was -1.11%.

On to `CN1CCN(c2ncc(-c3cc(Cl)cc(Cl)c3Cl)c(N)n2)CC1` [sipatrigine], for which the percent effect was -0.15%.

`C[C@@H]1C[C@H]2[C@@H]3CCC4=CC(=O)C=C[C@]4(C)[C@@]3(F)[C@@H](O)C[C@]2(C)[C@H]1C(=O)CO` [desoximetasone]: the percent effect is -4.17%. To `CCOC(=O)C1=C[C@]2(CC)CCCN3CCc4c(n1c1ccccc41)[C@@H]32` belongs -0.191%; to `O=C(O)COc1ccc(C(=O)/C=C/c2ccc(C(=O)O)cc2)cc1` [cinfenoac], -6.35%; to `OCCN1CCN(CC/C=C2/c3ccccc3Sc3ccc(Cl)cc32)CC1` [Zuclopenthixol], -3.76%. In the case of `N[C@H]1CONC1=O` [levcycloserine], the percent effect is -3.71%.
